Test results taken from patent US20040039211A1, “Tetrapyrroles” (DUKE UNIVERSITY AND NATIONAL JEWISH MEDICAL AND RESEARCH …, priority 2000, published 2004).
At least one structure is not confirmed: it was looked up by name or label, or the drawing left a doubt.

Assay: SOD activity, xanthine oxidase/cytochrome c method
Assay type: biochemical
Details: 0.05 M phosphate buffer, pH 7.8, 0.1 mM EDTA
Experimental: FIG. 12. […] The v0 is the rate of reduction of 10 μM cytochrome c by O2. The vi is the rate of reduction of cytochome c inhibited by the porphyrin catalyst in the presence of 0.1 mM EDTA in 0.05 M tris buffer at pH 7.8. 40 μM xanthine. ˜2 nM xanthine oxidase at 25° C. The total volume of the assay solution is 3 mL.
SOD Activity. Catalysis of the dismutating of O2 in vitro was followed by the xanthine oxidase/cytochrome c method (McCord et al, J. Biol. Chem. 244:6049 (1969)).
Dismutation of superoxide anion, O2^−. Assays were conducted in 0.05 M aqueous phosphate buffer, pH 7.8, 0.1 mM EDTA, ±15 μg/mL of catalase, ±albumin. Rate constants for the reaction with O2^−were based upon the competition of the compounds with cytochrome c.
Two metallotetrapyrroles were tested for antioxidant activity, in vitro. In particular, the compounds were assayed for their ability to dismutate superoxide in the indirect method that utilizes xanthine and xanthine oxidase to generate superoxide and cytochrome c reduction as indicator of superoxide flux. […] The mixture of iron and ascorbate generates reactive oxygen species that oxidize biological lipids and these oxidized lipids can be detected as species that react with thiobarbituric acid (TBARS).
a) SOD activity determined using a xanthine oxidase/cytochrome c assay

Compound: C=CC1=C(C)/C(=C/c2[nH]c(Cc3[nH]c(/C=C4\NC(=O)C(C)=C4C=C)c(C)c3CCC(=O)O)c(CCC(=O)O)c2C)NC1=O [bilirubin, bilirubin IX, reference compound]
- SOD-like activity (in words): Neither biliverdin nor bilirubin showed any observable SOD-like activity
